Values joined by “and” are separate entries in the source; they are usually repeats but may differ in a detail not shown here. Equal values may be shown once. This is one part of the list. The main result of the screen is listed elsewhere. These columns were measured beside it and carry no call. Most of these compounds were active or inconclusive in the main read-out, so they are no random draw. Potencies come from curve fits of mixed quality, noted in brackets.
Assay: IkB Signaling
Settings: ABC-DLBCL IkBa-CBG/CBR dual luciferase ratio (green luciferase fused to IkBa over red control in OCI-Ly3 lymphoma cells), 4 h
Outline: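 Luminescence ratio of IκBα-fused green versus native red beetle luciferase in OCI-Ly3 cells, 4 h post-doxycycline with compound; red signal alone, scaled from basal (0%) to zero light (-100%), flagged nonspecific or cytotoxic effects.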

[1] = measured here: IkB-luc green channel
[2] = measured here: control luc red channel

Compound | AC50 [1] | AC50 [2]
CC[C@@]1(O)C(=O)OCc2c1cc1n(c2=O)Cc2cc3ccccc3nc2-1 | 0.794 µM [falling, full curve] | 251 nM [falling, full curve] and 126 nM [falling, full curve] and 31.6 nM [falling, full curve]
CN1CCN(C(=O)O[C@@H]2c3nccnc3C(=O)N2c2ccc(Cl)cn2)CC1 | 39.8 µM [rising, single point] | –
CCN(CC)Cc1c[nH]c2ccccc12 | – | 3.98 µM [falling, full curve]
C[C@]1(C(=O)O)[C@@H]2CC[C@@H](O2)[C@@]1(C)C(=O)O | 31.6 µM [rising, partial curve] | 12.6 µM [rising, partial curve]
COC(=O)c1c(C)ccc2c(O)c3c(cc12)C(=O)c1c2c(cc(O)c1C3=O)[C@@]1(C)O[C@@](C)(O2)[C@@H](O)[C@H](N(C)C)[C@H]1O | – | 3.16 µM [falling, partial curve]
C[C@@]12CC[C@H]3[C@@H](CC[C@]4(O)C[C@H](O)CC[C@@]34C=O)[C@]1(O)CC[C@@H]2C1=CC(=O)OC1 | – | 2.51 µM [falling, full curve, poor fit]
CC(=NCCCN1CCOCC1)c1c(O)n(-c2ccccc2C)c(=O)[nH]c1=O | – | 3.16 µM [falling, full curve]
O=c1[nH]c(=O)n(C2CCCCC2)c(O)c1C1NCCc2ccccc21 (configuration not stated) | – | 12.6 µM [falling, partial curve]
CNc1ccc2oc(C[C@@H]3O[C@@]4(CC[C@H]3C)O[C@@H]([C@@H](C)C(=O)c3ccc[nH]3)[C@@H](C)C[C@H]4C)nc2c1C(=O)O | 2 µM [rising, partial curve] | 12.6 µM [falling, full curve, poor fit]
O=C(Cn1ncc2c3ccccc3n(Cc3ccc(F)cc3)c2c1=O)N1CCC2(CC1)OCCO2 | – | 20 µM [falling, partial curve]
Cc1cccc2sc(NC(=O)c3cccn(Cc4ccccc4)c3=O)nc12 | – | 2.51 µM [falling, full curve]
Cc1cc(NC(=O)c2cccn(Cc3ccccc3)c2=O)no1 | – | 2 µM [falling, full curve]
O=C(CN1C(=O)CN=C(c2ccccc2)c2ccccc21)Nc1cccc(C(F)(F)F)c1 | – | 25.1 µM [falling, partial curve]
Nc1c(C(=O)Nc2cccc(Br)c2)sc2nc3c(cc12)N1CCC3CC1 | – | 25.1 µM [falling, single point]
CC[C@]1(O)C(=O)OCc2c1cc1n(c2=O)Cc2cc3ccccc3nc2-1 | – | 0.398 µM [falling, full curve]
CN(CC1COc2ccccc2O1)c1nc(-c2cccnc2)nc2ccccc12 (configuration not stated) | – | 20 µM [falling, partial curve]
CCC(=NCc1ccc2c(c1)OCO2)c1c(O)n(C2CCCCC2)c(=O)[nH]c1=O | – | 15.8 µM [falling, partial curve]
CC(C)(C)OOC(=O)c1ccccc1 | 39.8 µM [rising, partial curve, poor fit] | –
CCN(CC)C(=O)c1ccc(NC(=O)CCn2nc(-c3ccc(C)cc3)c3ccccc3c2=O)cc1 | – | 20 µM [falling, partial curve]
CCOc1ccc(CN(CCc2ccc3c(c2)OCO3)Cc2cccc(C)c2)cc1 | – | 3.16 µM [falling, partial curve, poor fit]
CN1[C@@H]2CC[C@H]1CC(O[C@@H](c1ccccc1)c1ccc(Cl)cc1)C2 (some centres not stated) | – | 31.6 µM [falling, partial curve]
CCN(CC)C(=O)c1ccc(NC(=O)CCn2nc(-c3ccc(Cl)cc3)c3ccccc3c2=O)cc1 | – | 31.6 µM [falling, partial curve]
Cc1cccc(C2CC(=O)Oc3c2c(=O)oc2ccccc32)c1 (configuration not stated) | – | 15.8 µM [falling, partial curve]
C[C@@H]1O[C@H](O[C@H]2C[C@@H](O)[C@]3(CO)[C@H]4[C@H](O)C[C@]5(C)[C@@H](C6=CC(=O)OC6)CC[C@@]5(O)[C@H]4CC[C@]3(O)C2)[C@@H](O)[C@H](O)[C@H]1O | – | 0.398 µM [falling, full curve]
Cc1nnc(NC(=O)c2cccn(Cc3ccccc3)c2=O)s1 | – | 2 µM [rising, full curve]
COc1cc2nc(CN3CC=C(c4ccccc4)CC3)[nH]c(=O)c2cc1OC | – | 0.794 µM [falling, full curve]
O=C1NC(=O)[C@]2(Cc3ccccc3N3CCN(c4ccccc4)CC32)C(=O)N1c1ccccc1 (some centres not stated) | – | 1 µM [falling, partial curve]

Complete entries, quoted from the list. Values in the order: AC50 [1] | AC50 [2]
`O=C(CN1C(=O)CN=C(c2ccccc2)c2ccccc21)Nc1cccc(C(F)(F)F)c1` reads – | 25.1 µM [falling, partial curve]
`COc1cc2nc(CN3CC=C(c4ccccc4)CC3)[nH]c(=O)c2cc1OC` reads – | 0.794 µM [falling, full curve]

More structures

Compound | AC50 [1] | AC50 [2]
COc1ccc(NC(=O)CN2C(=O)CN=C(c3ccccc3)c3ccccc32)c(OC)c1 | – | 15.8 µM [falling, single point]
C[C@@H]1CC[C@@]2(OC1)O[C@H]1[C@@H](O)[C@H]3[C@@H]4CC[C@H]5C[C@@H](O[C@@H]6O[C@H](CO)[C@H](O[C@@H]7O[C@H](CO)[C@@H](O)[C@H](O[C@@H]8OC[C@@H](O)[C@H](O)[C@H]8O)[C@H]7O[C@@H]7O[C@H](CO)[C@@H](O)[C@H](O[C@@H]8O[C@H](CO)[C@@H](O)[C@H](O)[C@H]8O)[C@H]7O)[C@H](O)[C@H]6O)[C@H](O)C[C@]5(C)[C@H]4CC[C@]3(C)[C@H]1[C@@H]2C | 0.1 µM [rising, full curve, poor fit] | 0.0794 µM [rising, full curve, poor fit]
COc1ccc(OC)c(CCNCc2c(C(=O)O)c(C)n(Cc3ccc(F)cc3Cl)c2C)c1 | – | 31.6 µM [falling, single point]
Cc1cc(OCC(=O)N2CCN(CCc3ccncc3)CC2)cc(C)c1Cl | – | 39.8 µM [falling, partial curve]
COc1ccc(NC(=O)CCc2nc(C3=CCN(Cc4cccc(C)c4)CC3)no2)c(OC)c1 | – | 2.51 µM [falling, partial curve]
CCNC(=O)[C@@H]1O[C@@H](n2cnc3c(N)ncnc32)[C@@H](O)[C@H]1O | 0.01 µM [rising, full curve, poor fit] | 0.0158 µM [rising, full curve]
CCCCn1c(N)c(C(=O)NCCN2CCOCC2)c2nc3ccccc3nc21 | – | 25.1 µM [falling, partial curve]
Cc1cccc(-n2c(/C=C\c3cccc(Br)c3)nc3ccccc3c2=O)c1 | – | 3.16 µM [rising, partial curve]
CC1=CC(=O)NP(=O)(Oc2ccc3ccccc3c2)N1 (configuration not stated) | 31.6 µM [rising, partial curve] | –
O=C(CCl)c1ccccc1 | 20 µM [rising, partial curve] | –
COc1ccc(C2CC(=O)Oc3c2c(=O)oc2ccccc32)c(OC)c1OC (configuration not stated) | – | 25.1 µM [falling, single point]
O=C1C2CC=CCC2C(=O)N1SC(Cl)(Cl)Cl (configuration not stated) | – | 3.98 µM [falling, partial curve] and 3.16 µM [falling, full curve]
C[C@H]1CCCC(=O)CCCCCc2cc(O)cc(O)c2C(=O)O1 | – | 25.1 µM [falling, single point]
FC(F)(F)c1ccc2c(c1)nnn2C1CCN(Cc2nnnn2Cc2ccccc2)CC1 | – | 25.1 µM [falling, partial curve]
CCCCCCCCCOc1ccc2[nH]cc(CCN)c2c1 | – | 39.8 µM [falling, partial curve]
Clc1ccc(COC(Cn2ccnc2)c2ccc(Cl)cc2Cl)cc1 (configuration not stated) | – | 15.8 µM [falling, partial curve]
CN(C)C=C1C(=O)N(C2CCCCC2)C(=O)N(C2CCCCC2)C1=O | – | 15.8 µM [falling, partial curve]
Cc1nn(Cc2ccccc2)c(C)c1C(=O)OCC(=O)Nc1ccccc1SCC#N | – | 12.6 µM [falling, partial curve]
COc1ccc(C2=NCC(=O)N(CC(=O)NCc3ccco3)c3sc4c(c32)CCCC4)cc1 | – | 15.8 µM [falling, partial curve]
CCC(C)NC(=O)c1c(N)n(CCCOC)c2nc3ccccc3nc12 (configuration not stated) | – | 15.8 µM [falling, partial curve]
CCOC(=O)c1c(N)n(Cc2ccco2)c2nc3ccccc3nc12 | – | 20 µM [falling, partial curve, poor fit]
Cc1nc(-c2ccc(-c3ccc(C(=O)N4CCc5cc6c(cc54)C4(CCN(C)CC4)CO6)cc3)c(C)c2)no1 | 25.1 µM [falling, partial curve] | 25.1 µM [falling, partial curve] and 31.6 µM [falling, partial curve]
COc1ccc(Cl)cc1NC1=NCC(C)S1 (configuration not stated) | – | 39.8 µM [falling, single point]
NNc1c(C(N)=O)c2c(N)ncnc2n1[C@@H]1O[C@H](CO)[C@@H](O)[C@@H]1O | – | 3.16 µM [falling, partial curve]
COc1ccc(NC(=O)c2cccn(Cc3ccc(Cl)cc3)c2=O)c(OC)c1 | – | 25.1 µM [rising, partial curve, poor fit]
CCCn1c(=O)c2[nH]c(C3CCCC3)nc2n(CCCOC(=O)c2ccc(S(=O)(=O)F)cc2)c1=O | 6.31 µM [falling, full curve] | 7.94 µM [falling, full curve]
Cc1nc2cc(C(F)(F)F)ccc2n1C1CCN(Cc2nnnn2Cc2ccc3c(c2)OCO3)CC1 | 20 µM [falling, single point] | 10 µM [falling, partial curve]

— PubChem BioAssay AID445 (National Center for Advancing Translational Sciences (NCATS), 2006)
